Data reported in paper PMC4776146, “Distinct phosphorylation sites on the ghrelin receptor, GHSR1a, establish a code that determines the functions of ß-arrestins” (Scientific Reports, 2016).
These are yes or no findings as the source states them, for the method shown. In cells and extracts the contact can be indirect. Some binding calls cover weakened binding; strength is not graded here.

The chains behind the UniProt entries cited, without tags or fusion partners. Where a name states a change or a piece, a line headed by the entry shows the natural chain unless it says otherwise. A line that says so, or that is headed by a name, gives the form on record, which may keep a tag or linker.
UniProt Q92847: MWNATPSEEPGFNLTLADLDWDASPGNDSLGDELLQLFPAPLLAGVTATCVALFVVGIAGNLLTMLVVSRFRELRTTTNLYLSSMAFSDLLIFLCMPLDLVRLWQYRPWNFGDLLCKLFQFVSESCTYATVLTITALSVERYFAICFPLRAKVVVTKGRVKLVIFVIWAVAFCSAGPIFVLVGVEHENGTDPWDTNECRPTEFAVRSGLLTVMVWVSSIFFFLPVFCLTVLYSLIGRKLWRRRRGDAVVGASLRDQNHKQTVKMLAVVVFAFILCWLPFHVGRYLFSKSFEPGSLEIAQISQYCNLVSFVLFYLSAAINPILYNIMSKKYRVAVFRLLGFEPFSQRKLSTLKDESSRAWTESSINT
GHSR1a-DM (double mutant Thr350Ala, Ser349Ala) fused at its C terminus to eYFP (Q92847, form named): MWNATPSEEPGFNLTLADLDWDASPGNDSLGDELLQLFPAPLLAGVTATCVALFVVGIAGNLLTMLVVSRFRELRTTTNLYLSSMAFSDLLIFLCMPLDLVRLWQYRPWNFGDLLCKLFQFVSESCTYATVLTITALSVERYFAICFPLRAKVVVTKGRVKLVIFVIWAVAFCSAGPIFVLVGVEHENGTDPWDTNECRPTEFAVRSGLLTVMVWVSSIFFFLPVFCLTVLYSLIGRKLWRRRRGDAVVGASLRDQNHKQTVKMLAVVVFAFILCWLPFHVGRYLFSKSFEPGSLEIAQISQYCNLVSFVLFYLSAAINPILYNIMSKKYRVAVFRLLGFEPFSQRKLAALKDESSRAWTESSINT

B1: Renilla luciferase-tagged ß-arrestin 1 (natural protein, UniProt P49407 1-418, looked up)
chain: MGDKGTRVFKKASPNGKLTVYLGKRDFVDHIDLVDPVDGVVLVDPEYLKERRVYVTLTCAFRYGREDLDVLGLTFRKDLFVANVQSFPPAPEDKKPLTRLQERLIKKLGEHAYPFTFEIPPNLPCSVTLQPGPEDTGKACGVDYEVKAFCAENLEEKIHKRNSVRLVIRKVQYAPERPGPQPTAETTRQFLMSDKPLHLEASLDKEIYYHGEPISVNVHVTNNTNKTVKKIKISVRQYADICLFNTAQYKCPVAMEEADDTVAPSSTFCKVYTLTPFLANNREKRGLALDGKLKHEDTNLASSTLLREGANREILGIIVSYKVKVKLVVSRGGLLGDLASSDVAVELPFTLMHPKPKEEPPHREVPENETPVDTNLIELDTNDDDIVFEDFARQRLKGMKDDKEEEEDGTGSPQLNNR
notes: plasmid provided by Prof; Mark Scott (Institut Cochin, Paris); also called Rluc-ß-arrestin 1; source: HEK 293, transiently co-transfected (Lipofectamine 2000), in living cells

Tests used:
[1] = target: GHSR1a-DM (double mutant Thr350Ala, Ser349Ala) fused at its C terminus to eYFP (UniProt Q92847); test: FRET or BRET; BRET titration in living HEK 293 cells; constant amount of Rluc-ß-arrestin (donor) and increasing amounts of YFP-GHSR1a-WT or YFP-GHSR1a-DM (acceptor), treated with ghrelin; net BRET as a function of acceptor/donor; BRET50 as relative affinity
[2] = target: GHSR1a-WT fused at its C terminus to enhanced yellow fluorescent protein (eYFP) (UniProt Q92847); test: as above

Molecule | binding [1] | binding [2]
ß-arrestin 2 tagged with Rluc at its C-terminus (from UniProt P32121 1-409) | binds | binds
B1 | binds | binds
